# At least one structure is not confirmed: it was looked up by name or label, or the drawing left a doubt.
# Experiment: Powder dissolution testing of micronized olanzapine in distilled water
# Assay type: physicochemical
# Settings: 2-3 mg powder in 25 ml distilled water at 25° C.
smiles,measurement,value
"Cc1cc2c(s1)Nc1ccccc1N=C2N1CCN(C)CC1 [micronized olanzapine, olanzapine]",time at which sample was 50% dissolved,approximately 1 minute
same,time to complete dissolution,2.5 min

# Reference: patent US20070218139A1, “High Pressure Compaction For Pharmaceutical Formulations” (priority 2002, published 2007)
